Laboratory results as given in US8361967B2, “Beta sheet inhibiting peptides for preventing and/or treating Alzheimer's Disease” (Tianjin Medical University, priority 2008, dated 2013).
Some results were stated once for a whole list of compounds, not compound by compound. No end group written: not given here.

Target: Aβ1-42 peptide (Homo sapiens, UniProt P05067)
Assay: Electron microscopy of Aβ1-42 fibril formation
Format: biochemical
Parameters: Reagents: Aβ1-42 (purity >98%); purchased Sigma-Aldrich, Inc
Details: peptide 44.30 μmol/L with Aβ1-42 11.07 μmol/L, 37° C., 5 days
Protocol: 4. […] Samples of 5 μl were taken from each group, dropped onto a 300-mesh deionized copper mesh with carbon support film, and left to stand at room temperature for 15 min. The samples were negatively stained in dark by 2% uranyl acetate for 2 min. After drying, the samples were observed under a transmission electron microscope.

Sequence: HKQLVFFEED [H101]
- length of formed Aβ fibrils (Aβ alone about 0.5 to 5 μm): 0.5 to 5 μm
- diameter of formed Aβ fibrils (Aβ alone about 8 to 10 nm): 5 to 8 nm
